Data taken from PMC6906326.
These are yes or no findings as the source states them, for the method shown. In cells and extracts the contact can be indirect.

Biological target: YAP1 (human (endogenous in MKN28 and AGS)), P46937
Assay: co-IP; endogenous proteins from MKN28 and AGS lysates; protein A/G magnetic beads pre-incubated with anti-YAP1 or anti-snail1 antibody at 4 °C, washed three times with extraction buffer, western blot; also done after sh-CLDN6 knock-down (YAP1-snail1 interaction became weak)
Conditions: remark: other sources report otherwise

binding: no binding
B1: zeb1, P37275 1-1124 (protein)
chain: MADGPRCKRRKQANPRRNNVTNYNTVVETNSDSDDEDKLHIVEEESVTDAADCEGVPEDDLPTDQTVLPGRSSEREGNAKNCWEDDRKEGQEILGPEAQADEAGCTVKDDECESDAENEQNHDPNVEEFLQQQDTAVIFPEAPEEDQRQGTPEASGHDENGTPDAFSQLLTCPYCDRGYKRFTSLKEHIKYRHEKNEDNFSCSLCSYTFAYRTQLERHMTSHKSGRDQRHVTQSGCNRKFKCTECGKAFKYKHHLKEHLRIHSGEKPYECPNCKKRFSHSGSYSSHISSKKCISLIPVNGRPRTGLKTSQCSSPSLSASPGSPTRPQIRQKIENKPLQEQLSVNQIKTEPVDYEFKPIVVASGINCSTPLQNGVFTGGGPLQATSSPQGMVQAVVLPTVGLVSPISINLSDIQNVLKVAVDGNVIRQVLENNQANLASKEQETINASPIQQGGHSVISAISLPLVDQDGTTKIIINYSLEQPSQLQVVPQNLKKENPVATNSCKSEKLPEDLTVKSEKDKSFEGGVNDSTCLLCDDCPGDINALPELKHYDLKQPTQPPPLPAAEAEKPESSVSSATGDGNLSPSQPPLKNLLSLLKAYYALNAQPSAEELSKIADSVNLPLDVVKKWFEKMQAGQISVQSSEPSSPEPGKVNIPAKNNDQPQSANANEPQDSTVNLQSPLKMTNSPVLPVGSTTNGSRSSTPSPSPLNLSSSRNTQGYLYTAEGAQEEPQVEPLDLSLPKQQGELLERSTITSVYQNSVYSVQEEPLNLSCAKKEPQKDSCVTDSEPVVNVIPPSANPINIAIPTVTAQLPTIVAIADQNSVPCLRALAANKQTILIPQVAYTYSTTVSPAVQEPPLKVIQPNGNQDERQDTSSEGVSNVEDQNDSDSTPPKKKMRKTENGMYACDLCDKIFQKSSSLLRHKYEHTGKRPHECGICKKAFKHKHHLIEHMRLHSGEKPYQCDKCGKRFSHSGSYSQHMNHRYSYCKREAEERDSTEQEEAGPEILSNEHVGARASPSQGDSDERESLTREEDEDSEKEEEEEDKEMEELQEEKECEKPQGDEEEEEEEEEVEEEEVEEAENEGEEAKTEGLMKDDRAESQASSLGQKVGESSEQVSEEKTNEA
